Source: patent publication US20100160226A1 (7TM PHARMA A/S, priority 2007, published 2010)

Test: general procedure: Fmoc solid-phase peptide synthesis; PAL Peg-PS resin; HCTU
Conditions: whole synthesis, Analytical method A (Rt in min)

H-APLEPVYPGDNATPEQMAQYAADLRRYINTITRQRY-NH2
purity (crude or final not stated): 100.0%

H-APLEPVYPGDNATPEQMAQYAADLRRYINTLTRQRY-NH2
purity (crude or final not stated): 98.0%

H-PLEPVYPGDNATPEQMAQYAADLRRYINMITRQRY-NH2
purity (crude or final not stated): 95.1%

H-PLEPVYPGDNATPEQMAQYAADLRRYINTITRQRY-NH2
purity (crude or final not stated): 98.0%

H-PLEPVYPGDNATPEQMAQYAADLRRYINTLTRQRY-NH2
purity (crude or final not stated): 97.9%
